Measurements reported in publication doi:10.1101/2025.06.02.657518.
Read-outs that look alike come from different tables or passages of the source. No constants are given. Whether binding was seen depends on the method and setting. Binding seen in cells or lysates may run through a third protein. Some results given as binding are weak or reduced against the parent protein; the word gives no strength.

Amino acid sequences for entries named in this document (tags omitted).
UniProt Q13485: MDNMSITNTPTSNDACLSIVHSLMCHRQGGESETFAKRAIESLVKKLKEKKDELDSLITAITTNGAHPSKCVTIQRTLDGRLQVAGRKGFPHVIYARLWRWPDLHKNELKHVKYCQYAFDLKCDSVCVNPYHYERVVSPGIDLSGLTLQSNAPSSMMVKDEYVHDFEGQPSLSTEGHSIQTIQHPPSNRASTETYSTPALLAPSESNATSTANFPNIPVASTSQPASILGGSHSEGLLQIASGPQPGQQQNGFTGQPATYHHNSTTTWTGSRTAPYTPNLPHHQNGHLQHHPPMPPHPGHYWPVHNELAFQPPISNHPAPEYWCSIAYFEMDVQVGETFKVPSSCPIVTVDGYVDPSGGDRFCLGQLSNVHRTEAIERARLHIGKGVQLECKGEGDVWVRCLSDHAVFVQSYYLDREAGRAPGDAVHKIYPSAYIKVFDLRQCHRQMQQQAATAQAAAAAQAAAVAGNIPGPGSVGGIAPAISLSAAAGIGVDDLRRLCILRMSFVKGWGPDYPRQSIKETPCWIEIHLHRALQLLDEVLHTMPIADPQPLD
UniProt P35222: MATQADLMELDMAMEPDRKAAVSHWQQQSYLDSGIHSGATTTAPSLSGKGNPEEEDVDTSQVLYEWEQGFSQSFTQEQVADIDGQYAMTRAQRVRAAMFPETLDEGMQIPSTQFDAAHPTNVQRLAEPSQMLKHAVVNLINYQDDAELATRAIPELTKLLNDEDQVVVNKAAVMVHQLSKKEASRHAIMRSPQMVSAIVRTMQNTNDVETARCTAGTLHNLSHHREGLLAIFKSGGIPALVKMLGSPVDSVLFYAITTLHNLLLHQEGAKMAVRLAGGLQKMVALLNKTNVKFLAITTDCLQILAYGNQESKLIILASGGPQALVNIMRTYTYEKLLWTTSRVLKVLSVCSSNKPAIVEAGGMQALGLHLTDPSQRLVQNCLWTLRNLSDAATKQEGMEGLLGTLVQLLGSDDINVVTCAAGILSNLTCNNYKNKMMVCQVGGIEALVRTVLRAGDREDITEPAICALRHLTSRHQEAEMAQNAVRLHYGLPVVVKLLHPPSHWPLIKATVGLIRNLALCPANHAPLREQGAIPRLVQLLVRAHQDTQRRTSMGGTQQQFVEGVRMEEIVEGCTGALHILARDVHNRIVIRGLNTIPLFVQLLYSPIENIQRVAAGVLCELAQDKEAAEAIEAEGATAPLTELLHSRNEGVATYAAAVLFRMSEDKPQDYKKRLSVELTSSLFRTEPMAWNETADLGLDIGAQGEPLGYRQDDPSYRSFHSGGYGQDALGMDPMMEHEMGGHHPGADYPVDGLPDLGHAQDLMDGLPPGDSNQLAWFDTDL
UniProt Q93009: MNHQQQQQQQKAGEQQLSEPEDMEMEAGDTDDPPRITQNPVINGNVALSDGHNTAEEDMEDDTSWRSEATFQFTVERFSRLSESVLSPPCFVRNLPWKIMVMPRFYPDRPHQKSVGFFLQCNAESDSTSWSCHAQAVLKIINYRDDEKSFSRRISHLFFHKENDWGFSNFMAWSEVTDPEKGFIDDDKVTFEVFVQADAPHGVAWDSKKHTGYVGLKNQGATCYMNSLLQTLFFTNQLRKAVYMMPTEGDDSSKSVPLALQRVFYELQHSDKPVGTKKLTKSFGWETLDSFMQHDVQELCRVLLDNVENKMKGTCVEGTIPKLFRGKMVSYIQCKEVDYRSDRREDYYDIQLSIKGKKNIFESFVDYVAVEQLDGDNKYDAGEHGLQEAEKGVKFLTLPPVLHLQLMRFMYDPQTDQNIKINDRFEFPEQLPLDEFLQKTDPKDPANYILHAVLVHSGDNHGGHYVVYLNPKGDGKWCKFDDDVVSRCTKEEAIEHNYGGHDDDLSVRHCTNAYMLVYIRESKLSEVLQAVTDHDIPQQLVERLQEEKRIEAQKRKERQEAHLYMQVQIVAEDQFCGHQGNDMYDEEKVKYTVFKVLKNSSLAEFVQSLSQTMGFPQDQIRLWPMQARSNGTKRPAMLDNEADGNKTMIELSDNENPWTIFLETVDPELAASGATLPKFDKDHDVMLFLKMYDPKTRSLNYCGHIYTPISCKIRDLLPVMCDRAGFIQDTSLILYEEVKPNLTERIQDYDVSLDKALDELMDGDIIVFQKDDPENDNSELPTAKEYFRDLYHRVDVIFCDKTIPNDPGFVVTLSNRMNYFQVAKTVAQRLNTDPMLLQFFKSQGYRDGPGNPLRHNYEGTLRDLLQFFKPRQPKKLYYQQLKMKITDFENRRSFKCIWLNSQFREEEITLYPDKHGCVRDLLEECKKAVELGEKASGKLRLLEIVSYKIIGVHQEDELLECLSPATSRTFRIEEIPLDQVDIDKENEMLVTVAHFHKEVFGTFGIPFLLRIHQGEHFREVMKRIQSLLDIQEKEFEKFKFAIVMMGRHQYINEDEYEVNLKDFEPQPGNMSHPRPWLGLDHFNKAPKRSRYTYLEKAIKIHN

B1: ERC1 (cloned, immunoprecipitation) (protein, UniProt Q8IUD2 1-1116)
chain: MYGSARSVGKVEPSSQSPGRSPRLPRSPRLGHRRTNSTGGSSGSSVGGGSGKTLSMENIQSLNAAYATSGPMYLSDHENVGSETPKSTMTLGRSGGRLPYGVRMTAMGSSPNIASSGVASDTIAFGEHHLPPVSMASTVPHSLRQARDNTIMDLQTQLKEVLRENDLLRKDVEVKESKLSSSMNSIKTFWSPELKKERALRKDEASKITIWKEQYRVVQEENQHMQMTIQALQDELRIQRDLNQLFQQDSSSRTGEPCVAELTEENFQRLHAEHERQAKELFLLRKTLEEMELRIETQKQTLNARDESIKKLLEMLQSKGLSAKATEEDHERTRRLAEAEMHVHHLESLLEQKEKENSMLREEMHRRFENAPDSAKTKALQTVIEMKDSKISSMERGLRDLEEEIQMLKSNGALSTEEREEEMKQMEVYRSHSKFMKNKVEQLKEELSSKEAQWEELKKKAAGLQAEIGQVKQELSRKDTELLALQTKLETLTNQFSDSKQHIEVLKESLTAKEQRAAILQTEVDALRLRLEEKETMLNKKTKQIQDMAEEKGTQAGEIHDLKDMLDVKERKVNVLQKKIENLQEQLRDKEKQMSSLKERVKSLQADTTNTDTALTTLEEALAEKERTIERLKEQRDRDEREKQEEIDNYKKDLKDLKEKVSLLQGDLSEKEASLLDLKEHASSLASSGLKKDSRLKTLEIALEQKKEECLKMESQLKKAHEAALEARASPEMSDRIQHLEREITRYKDESSKAQAEVDRLLEILKEVENEKNDKDKKIAELERQVKDQNKKVANLKHKEQVEKKKSAQMLEEARRREDNLNDSSQQLQDSLRKKDDRIEELEEALRESVQITAEREMVLAQEESARTNAEKQVEELLMAMEKVKQELESMKAKLSSTQQSLAEKETHLTNLRAERRKHLEEVLEMKQEALLAAISEKDANIALLELSSSKKKTQEEVAALKREKDRLVQQLKQQTQNRMKLMADNYEDDHFKSSHSNQTNHKPSPDQIIQPLLELDQNRSKLKLYIGHLTTLCHDRDPLILRGLTPPASYNLDDDQAAWENELQKMTRGQLQDELEKGERDNAELQEFANAILQQIADHCPDILEQVVNALEESS
B2: TRIM33 (cloned, immunoprecipitation) (protein, UniProt Q9UPN9 1-1127)
chain: MAENKGGGEAESGGGGSGSAPVTAGAAGPAAQEAEPPLTAVLVEEEEEEGGRAGAEGGAAGPDDGGVAAASSGSAQAASSPAASVGTGVAGGAVSTPAPAPASAPAPGPSAGPPPGPPASLLDTCAVCQQSLQSRREAEPKLLPCLHSFCLRCLPEPERQLSVPIPGGSNGDIQQVGVIRCPVCRQECRQIDLVDNYFVKDTSEAPSSSDEKSEQVCTSCEDNASAVGFCVECGEWLCKTCIEAHQRVKFTKDHLIRKKEDVSESVGASGQRPVFCPVHKQEQLKLFCETCDRLTCRDCQLLEHKEHRYQFLEEAFQNQKGAIENLLAKLLEKKNYVHFAATQVQNRIKEVNETNKRVEQEIKVAIFTLINEINKKGKSLLQQLENVTKERQMKLLQQQNDITGLSRQVKHVMNFTNWAIASGSSTALLYSKRLITFQLRHILKARCDPVPAANGAIRFHCDPTFWAKNVVNLGNLVIESKPAPGYTPNVVVGQVPPGTNHISKTPGQINLAQLRLQHMQQQVYAQKHQQLQQMRMQQPPAPVPTTTTTTQQHPRQAAPQMLQQQPPRLISVQTMQRGNMNCGAFQAHQMRLAQNAARIPGIPRHSGPQYSMMQPHLQRQHSNPGHAGPFPVVSVHNTTINPTSPTTATMANANRGPTSPSVTAIELIPSVTNPENLPSLPDIPPIQLEDAGSSSLDNLLSRYISGSHLPPQPTSTMNPSPGPSALSPGSSGLSNSHTPVRPPSTSSTGSRGSCGSSGRTAEKTSLSFKSDQVKVKQEPGTEDEICSFSGGVKQEKTEDGRRSACMLSSPESSLTPPLSTNLHLESELDALASLENHVKIEPADMNESCKQSGLSSLVNGKSPIRSLMHRSARIGGDGNNKDDDPNEDWCAVCQNGGDLLCCEKCPKVFHLTCHVPTLLSFPSGDWICTFCRDIGKPEVEYDCDNLQHSKKGKTAQGLSPVDQRKCERLLLYLYCHELSIEFQEPVPASIPNYYKIIKKPMDLSTVKKKLQKKHSQHYQIPDDFVADVRLIFKNCERFNEMMKVVQVYADTQEINLKADSEVAQAGKAVALYFEDKLTEIYSDRTFAPLPEFEQEEDDGEVTEDSDEDFIQPRRKRLKSDERPVHIK

Columns and labels:
Assay in all cases: co-IP
[1] = biological target: SMAD4 (immunoprecipitation) (UniProt Q13485)
[2] = biological target: β-catenin (immunoprecipitation) (human) (UniProt P35222)
[3] = biological target: SMAD4 (immunoprecipitation) (UniProt Q13485); remark: listed apart in the source

| Molecule | binding [1] | binding [2] | binding [3] |
| --- | --- | --- | --- |
| USP7 (cloned, immunoprecipitation) (from UniProt Q93009 1-1102) | binds |  |  |
| B1 |  | binds | binds |
| B2 |  | binds | binds |
